Experimental data: PubChem BioAssay AID493014 (National Center for Advancing Translational Sciences (NCATS), 2011)
This is one part of the list. The main result of the screen is listed elsewhere. These columns were measured beside it and carry no call. The list favours compounds with an active or inconclusive main result. Potencies come from curve fits of mixed quality, noted in brackets.

Assay: qHTS Assay to Find Inhibitors of Chronic Active B-Cell Receptor Signaling
Conditions: ABC-DLBCL IkBa-CBG/CBR reporter, luminescence ratio (green luciferase fused to IkBa over red control in TMD8 lymphoma cells), 4 h
Method in brief: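 TMD8 ABC-DLBCL cells carrying doxycycline-inducible green luciferase fused to IkappaBalpha plus unfused red luciferase were exposed to compounds (up to 46 uM) for 4 hrs at 37C. Activity came from the overlap-corrected green/red luminescence ratio.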

[1] = measured here: CBR red luminescence, cell number
[2] = measured here: IkBa-CBG green luminescence

| SMILES | AC50 [1] | AC50 [2] |
| --- | --- | --- |
| COc1cccc(-c2nn(-c3ccc(F)cc3)cc2C(=O)NCC2CCCO2)c1 (centres undefined) | 32.6 µM [rising, single point] |  |
| COc1ccc(/C=N\NC(=O)c2cc(O)c(O)c(O)c2)cc1CN1CCN(c2ccc(F)cc2)CC1 | 29.1 µM [falling, single point] |  |
| CC(c1ccc(Cl)cc1)n1c(-c2ccc3ccccc3n2)n[nH]c1=S (centres undefined) | 20 µM [rising, partial curve, poor fit] |  |
| Cc1noc(/C=C/N(C)C)c1S(=O)(=O)N1CCCC(C(=O)Nc2ccc3c(c2)OCO3)C1 (centres undefined) | 0.58 µM [rising, full curve, poor fit] |  |
| Cc1ccc(S(=O)(=O)Nc2ccc(N=Nc3ccc(O)cc3)cc2)cc1 | 29.1 µM [falling, single point] | 23.1 µM [rising, partial curve, poor fit] |
| CC(C)CNC(=O)c1cc(-c2ccco2)on1 | 7.94 µM [falling, partial curve, poor fit] |  |
| CC(C)c1ccc(OCC(O)CNC(C)c2ccccc2)cc1 (centres undefined) | 3.16 µM [falling, partial curve, poor fit] |  |
| C[C@H](CO)N1C[C@H](C)[C@@H](CN(C)C(=O)Nc2ccc3c(c2)OCO3)Oc2c(NS(=O)(=O)c3cn(C)cn3)cccc2C1=O | 29.1 µM [rising, single point] |  |
| Cc1cc(C)c2sc(NNC(=O)c3ccc(S(=O)(=O)N4CCc5ccccc5C4)cc3)nc2c1 | 20.6 µM [rising, single point] |  |
| COc1ccc(-c2ccc(CCC(=O)O)n2-c2ccccc2OC)cc1 | 11.2 µM [rising, partial curve] | 11.2 µM [falling, partial curve] |
| O=C(Oc1c(CN2CCOCC2)cc(Cl)c2cccnc12)c1ccccc1F |  | 2.24 µM [falling, partial curve] |
| O=C(NNC1OC(CO)C(O)C(O)C1O)c1cccc(Br)c1 (centres undefined) | 8.91 µM [falling, partial curve] |  |
| CCSc1nnc(NC(=O)CSc2nc3c(c(=O)n2-c2ccccc2OC)SCC3)s1 | 25.9 µM [falling, partial curve, poor fit] |  |
| CCOc1ccc(-c2[nH]ncc2Oc2cccc(OC)c2)c(O)c1 | 35.5 µM [rising, single point] |  |
| COC(=O)C(NC(C)=O)(Nc1sc2c(c1C(N)=O)CCCC2)C(F)(F)F (centres undefined) | 3.26 µM [rising, full curve, poor fit] |  |
| CC(C)N1CCc2c(sc(NC(=O)c3cc(-c4cccs4)nc4ccccc34)c2C(N)=O)C1 | 16.4 µM [falling, partial curve, poor fit] |  |
| O=C(COC(=O)Cn1cnc2ccccc21)Nc1ccc2c(c1)C(=O)c1ccccc1C2=O | 1.64 µM [rising, partial curve, poor fit] |  |
| COc1cc(C(=O)NCC2CCCO2)cc(OC)c1OC (centres undefined) | 6.51 µM [rising, partial curve, poor fit] |  |
| CC1CCc2c(sc3nc(C(C)(C)C)nc(N4CCN(C(=O)CCl)CC4)c23)C1 (centres undefined) | 12.6 µM [falling, single point] |  |
| COc1ccc2sc(N(CCCN(C)C)C(=O)c3ccc(S(=O)(=O)N(C)C4CCCCC4)cc3)nc2c1 | 23.1 µM [falling, single point] |  |

| SMILES | AC50 [1] | AC50 [2] |
| --- | --- | --- |
| COC(=O)COc1ccc(S(=O)(=O)Nc2ccc(C(N)=O)cc2)cc1Cl | 28.2 µM [rising, single point] |  |
| CCOc1ccc(-n2c(=S)sc3c(=O)n(-c4ccccc4)c(SCC(=O)O)nc32)cc1 | 14.1 µM [falling, single point] |  |
| O=C(/C=C/c1ccc(S(=O)(=O)N2CCOCC2)cc1)Nc1ccc(F)c(F)c1F | 9.2 µM [falling, partial curve, poor fit] |  |
| Cc1cccc(N=Cc2[nH]c3ccc(Br)c(Cl)c3c2O)c1 | 20.6 µM [falling, partial curve] |  |
| COC(=O)C1=C(C)N(Cc2ccccc2)C(=NCCCOC(C)C)N[C@H]1c1ccccc1 | 23.1 µM [falling, single point] |  |
| Cc1ccc2nc(NC(=O)CSCC(=O)OCC(=O)c3ccccc3)sc2c1 | 0.731 µM [falling, full curve] |  |
| NC(=O)c1ccccc1N=Cc1ccc2ccccc2c1 | 2.31 µM [rising, partial curve, poor fit] |  |
| c1ccc(CCCc2nc(-c3ccccn3)no2)cc1 | 0.58 µM [rising, full curve] |  |
| O=C(c1ccc(S(=O)(=O)c2ccccc2Cl)c([N+](=O)[O-])c1)N1CCN(Cc2ccccc2)CC1 | 20.6 µM [falling, partial curve, poor fit] |  |
| O=C(COc1ccccc1)Nc1cccc(S(=O)(=O)N2CCCC2)c1 | 20.6 µM [falling, partial curve, poor fit] |  |
| Cc1cc2ncn(C(=O)c3c(-c4c(Cl)cccc4Cl)noc3C)c2cc1C | 1.78 µM [rising, partial curve] |  |
| O=C(CCC(=O)Nc1nnc(C2CCCCC2)s1)NCc1ccccc1 | 0.282 µM [rising, full curve, poor fit] |  |
| C/C(=N\NC(=O)CN1CCN(Cc2ccccc2)CC1)c1ccncc1 | 1.26 µM [rising, full curve, poor fit] |  |
| CS(=O)(=O)n1nc(OC(=O)c2cccc3ccccc23)cc1N | 11.2 µM [falling, partial curve, poor fit] |  |
| O=C(Nc1cc(Cl)ccc1O)C1CC(c2ccccc2Cl)=NO1 (centres undefined) | 12.6 µM [falling, single point] |  |
| CCC1(c2ccccc2)NC(=O)N(CC(=O)Nc2ccc(Cl)c(S(=O)(=O)N3CCCCC3)c2)C1=O (centres undefined) | 2.91 µM [falling, full curve] |  |
| Cc1nn(-c2ccccc2)c2[nH]c(=O)c(CNCc3ccc4c(c3)OCO4)cc12 | 35.5 µM [falling, single point] |  |
| CCOc1cc(N2CCOCC2)c(OCC)cc1NC(=O)c1ccc(OC)c(S(=O)(=O)N2CCOCC2)c1 | 0.92 µM [rising, partial curve, poor fit] |  |
| COc1cccc(C(=O)Nc2ccc3c(cc2=O)[C@@H](NC(C)=O)CCc2cc(OC)c(OC)c(OC)c2-3)c1 | 0.631 µM [rising, full curve, poor fit] | 20 µM [falling, partial curve] |
| CCOC(=O)N1CCN(C(=O)c2ccc(Cl)c(S(=O)(=O)Nc3ccccc3)c2)CC1 | 2.91 µM [falling, full curve] |  |

| SMILES | AC50 [1] | AC50 [2] |
| --- | --- | --- |
| Cc1ccnc(NC(=O)c2cccc(NC(=O)Cc3ccccc3)c2)c1 | 6.31 µM [falling, single point] |  |
| Cc1nc2ccccc2c(=O)n1NC(=O)c1ccccc1 | 25.1 µM [falling, single point] |  |
| O=C(NCc1cccnc1)c1ccc(-c2cc(Cl)ccc2Cl)o1 | 35.5 µM [falling, single point] |  |
| Cc1c(Cl)cccc1NC(=O)CSc1ncccc1C(=O)Oc1ccccc1Cl | 10 µM [rising, partial curve, poor fit] |  |
| Nc1cccnc1Sc1cc(Cl)c(Cl)cc1Cl | 29.1 µM [rising, single point] |  |
| O=C(CCn1nc(-c2ccc(Cl)cc2)c2ccccc2c1=O)NCC1CCCO1 (centres undefined) | 29.1 µM [falling, single point] |  |
| Cc1ccc(S(=O)(=O)Nc2ccc(-c3nnc(SCc4ccccc4Cl)o3)cc2)cc1 | 3.66 µM [rising, full curve, poor fit] |  |
| C=CCNC(=O)COC(=O)c1ccccc1C(=O)N(C)C1CCCCC1 | 14.6 µM [rising, partial curve, poor fit] |  |
| Cc1ccc2[nH]c(=O)c(C(c3nnnn3CC3CCCO3)N3CCc4ccccc4C3)cc2c1 (centres undefined) | 25.9 µM [falling, single point] |  |
| Cc1ccc2oc(C(=O)N3CCN(CCO)CC3)c(C)c2c1 | 17.8 µM [rising, single point] |  |
| CSc1nnc(NC(=O)c2nc(S(=O)(=O)Cc3ccccc3)ncc2Cl)s1 | 35.5 µM [falling, single point] |  |
| COc1ccc(S(N)(=O)=O)cc1C(=O)OCCCOC(=O)c1cc(S(N)(=O)=O)ccc1OC | 2.24 µM [rising, full curve] | 2.24 µM [falling, partial curve] |
| O=C1Nc2ccc3sc4ccccc4c3c2C1=O |  | 22.4 µM [rising, partial curve, poor fit] |
| Cc1cccc(NC2=NC(=S)N(CC#N)C23CCCCC3)c1 | 18.4 µM [rising, partial curve, poor fit] | 23.1 µM [falling, partial curve, poor fit] |
| COc1cc(C2c3cc4c(cc3C(OC3OC5COC(c6cccs6)OC5C(O)C3O)C3COC(=O)C23)OCO4)cc(OC)c1O (centres undefined) | 35.5 µM [falling, single point] | 4.47 µM [rising, partial curve, poor fit] |
| Cc1ccc(CN2CC(C(=O)N(Cc3nnc(-c4ccccc4Cl)o3)C3CC3)CC2=O)cc1 (centres undefined) | 6.51 µM [falling, partial curve, poor fit] |  |
| CCOC(=O)c1sc(C)c2c1NC(C)(c1cccc3ccccc13)NC2=O (centres undefined) | 0.58 µM [falling, full curve, poor fit] |  |
| COc1ccc(CC(=O)NCc2ccco2)cc1OC | 3.26 µM [falling, partial curve, poor fit] |  |

Individual results from above:
Value for Cc1ccc2oc(C(=O)N3CCN(CCO)CC3)c(C)c2c1 under AC50 [1]: 17.8 µM [rising, single point]
Value for COc1ccc(CC(=O)NCc2ccco2)cc1OC under AC50 [1]: 3.26 µM [falling, partial curve, poor fit]
